In PubChem BioAssay AID1347426 (Functional Genomics Laboratory (NCATS/FGL), 2020):
Out of some 31,000 sequences screened, about 1,400 (4.5%) were called active.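 The calls were made as follows: active = median seed-adjusted z-score above 1 or below -1; inactive = the rest.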 This is one part of the list.

Assay: Novel Modifiers of Survival Motor Neuron (SMN) Protein: Gene Identification via Genome-wide siRNA Screen;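 also: luminescence tracks full-length SMN protein made from the SMN2 reporter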
Conditions: HEK293T SMN2-luciferase reporter, siRNA knockdown, 72 h; actives lie on both sides
Outline: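 HEK293T cells stably expressing an SMN2 splicing/cDNA-luciferase reporter were reverse-transfected with a druggable-genome siRNA library and read by luminescence at 72 hours; hits defined by MAD score above 1.0 or below -1.0.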

| Sequence | median seed-adjusted z-score |
| --- | --- |
| GCAUCUGCGAUGUGAGGAATT against RYBP | inactive: 0.831 |
| UCUUCCCUCCGACCACUUATT against CA13 | inactive: -0.212 |
| GCAGUGCGUUCAGUGCAAATT against FHL2 | inactive: 0.475 |
| CAAGGGUCUUUCAGAAGUUTT against FKBP9L | inactive: 0.666 |
| GAAUGCGAUUCACACCUUUTT against CAT | inactive: 0 |
| GACUGGACCCGGACAUUAATT against ADAMTS15 | inactive: 0.765 |
| CAAUUAAGUUGGAUCCUUUTT against WARS2 | inactive: 0.21 |
| GGACGUACUUAUAAUCCUATT against MAK | inactive: 0.22 |
| ACGUGUCCUGGAUCAGGAATT against GZMM | inactive: -0.17 |
| GCAUCUACUGCAAGGAAGATT against LHX2 | inactive: 0.464 |
| GCUUGAACCAGAUCCGGAATT against BMP2K | inactive: -0.51 |
| GGAGGUUCAGUUCCCGUAATT against OVCH1 | inactive: 0.0211 |
| CAGGCAAACCGCUACAUCATT against EN1 | inactive: 0.761 |
| GGAUUCCAAUCUUAGCUUUTT against RLN1 | inactive: 0.0637 |
| AGCUUUACAUGAACACGCATT against KCNN4 | inactive: 0.00864 |
| GGAAGACCUUUACUCUUUATT against ZNF540 | inactive: -0.439 |
| CGGUCAUGCUGAUCACCUUTT against GPR119 | inactive: -0.382 |
| GGAUCAUCUCAGAAUAGAATT against CENPC1 | inactive: 0 |
| CCAGCUUCUUAAUAGACAATT against SERPINA7 | inactive: 0.0925 |
| GCUCAACACUCAUCAAACATT against ZNF774 | inactive: -0.0834 |
| CGUUAUUGUUAGCAACACUTT against ZNF280A | inactive: -0.207 |
| GAACGUGCAUUAUAUCCCATT against MSL3 | inactive: 0.423 |

| Sequence | median seed-adjusted z-score |
| --- | --- |
| AGAUGGACGAGGUCCUGUATT against TXNL4A | inactive: -0.42 |
| GAAUGGAAGAUUUCACCUUTT against SNAPC3 | active: -1.72 |
| CCAUCGCACUGUACAGCUATT against BEST2 | inactive: 0.415 |
| GCUUUAACUUCUCUGCCUATT against GLRA1 | inactive: 0 |
| GAAAAAGGGUCACCAGAAATT against TSG101 | active: 1.48 |
| CAAUCUGAAUCUGCCCAGATT against HLA-DQB1 | inactive: 0.454 |
| CUCUCAUAAGGAUCCGAGATT against FREM2 | inactive: 0.143 |
| CUAUUUCCCUGCCUUCGAATT against GSTA3 | inactive: 0.334 |
| GAACAAGGUUGAUUUUCGATT against ABCC11 | inactive: 0.322 |
| CCCAGUAACUUGUCACCCATT against BSN | inactive: 0.116 |
| UGAUCUUUUUAUACACAAUTT against PYCARD | inactive: 0.117 |
| GCUAUUGAGUUUGCCCAAATT against ADHFE1 | inactive: 0.418 |
| GGGAGUGAGUUUUCCGGGATT against PAX5 | inactive: 0.285 |
| CCACGGCUGCAACAUCUUUTT against PDE2A | inactive: -0.2 |
| UCAGAAACCUGGGACAUAATT against SLC25A29 | inactive: 0.642 |
| GGUCUGGAGAAGGUGCAUATT against ANGPTL4 | active: 1.37 |
| CAUUGUCUGUAUCUAUAUATT against MFSD2 | inactive: -0.325 |
| GAUCAGAAUUAGGUAUAGATT against ZHX1 | inactive: -0.566 |
| ACCUUUUCCUUGAGACUCATT against YBX2 | inactive: 0.362 |
| GGCUUCCAGUGUAUCGACUTT against TNFRSF18 | inactive: 0.154 |
| GCUGGAGUCUAUUCCUGGATT against TYMP | inactive: -0.249 |
| CCAACAUAGUGGACCGGAUTT against MYF5 | inactive: -0.786 |

| Sequence | median seed-adjusted z-score |
| --- | --- |
| AGAGUGUGCUUAUUGCCUATT against TSHB | inactive: -0.247 |
| AGACCCUCAUUGACCAGUATT against ACOT8 | inactive: 0.0643 |
| UCUCAGCUCCUAAAGCACATT against CST6 | inactive: -0.237 |
| UGUCUGUACUCAUUGCAAATT against LPXN | inactive: -0.065 |
| CCUUACUAAUCAUAGGAAATT against ZNF254 | inactive: 0.088 |
| GGCCUUUUCCGCUACAAGATT against DUSP2 | inactive: 0.576 |
| CAGCAAUGCCUGUGAGAAATT against PDK2 | inactive: -0.481 |
| GAUUCUUUAGAGUCACUUATT against RFK | inactive: -0.00532 |
| GACCUAACCACUAUAGUUATT against IL7R | inactive: 0 |
| AGACCAUUGAGACCCGGAATT against PRPH | inactive: 0 |
| GGAUAAUCGACACUCUGGATT against MATN3 | inactive: 0.0972 |
| AUGACGCACUACUCAAGAATT against GH1 | inactive: -0.394 |
| GGACGGAAAACAGUCUUAATT against OAS2 | inactive: 0.0758 |
| CGGGAUUCAGACUAACAUATT against SLC44A5 | inactive: 0.179 |
| GGAUUUGUUCUGAUCCGUUTT against NSD1 | inactive: -0.372 |
| CAUCAACGAAGGAAAUAUATT against CD27 | inactive: 0.5 |
| CAAUGGACAUAAACGUGAUTT against BMPER | inactive: -0.684 |
| CCAUGUUAUGAUUCGCUGUTT against PTPN11 | inactive: 0.186 |
| CACCCUUACCUCAACCAAATT against tAKR | inactive: -0.356 |
| CCACCUACUGAAUCUCGAATT against BCL6B | inactive: 0 |
| CGAGAGUGCGAGAAAAAUATT against SFXN1 | inactive: -0.746 |
| CUACCAGGGUGGAAAAUUUTT against UBE2F | inactive: 0 |

| Sequence | median seed-adjusted z-score |
| --- | --- |
| GAUCCUGAGUGACAUGCGATT against KRT19 | inactive: 0.0661 |
| GGAUCGAUAUUUUGUCGAATT against BAZ1A | inactive: 0.0896 |
| GAGGUAAAACGAACCAUUATT against SLAMF1 | inactive: -0.104 |
| GUAUCUCAACAUCAAACUATT against LSM2 | active: -1.48 |
| CCCUCACCCUUACAUCGCATT against SPHK2 | inactive: 0 |
| CAGAGACUAGGAAACGUAATT against USP51 | inactive: -1 |
| GGAAAAAGAUUCAAGAAAATT against TRIM43 | inactive: -0.4 |
| CUACGUCUCGGGUCCAGAUTT against HOXA11 | inactive: -0.222 |
| UAACUGAUUUACCUACUUATT against DLX4 | inactive: -0.0473 |
| CAACUAGUGGAGAAGAUCATT against FAM63B | inactive: 0.111 |
| GGACGACUGCAGCAAGUUUTT against ATP2A3 | inactive: -0.28 |
| CAUCCUUCAUAGACGGCUATT against PTPRE | inactive: 0.619 |
| GCAACCUUCUAACUACGGUTT against HNRNPA2B1 | active: 1.33 |
| CAUGGAAGAUCUGACCAUATT against MEOX2 | active: 1.36 |
| UGACUAAAGAGGAACAGAUTT against PTH1R | inactive: -0.521 |
| GCAAGAACGUGAUCGGGUUTT against TAGLN2 | inactive: 0.432 |
| CAGGGAAGCUAGACACUGATT against MMP10 | inactive: 0.902 |
| GGAGACCCGCUGAACAAUATT against ERBB2 | inactive: 0.158 |
| CGAACCUCGUCUUCACCUATT against FOSL2 | inactive: -0.372 |
| CACUUGCACAGAUACCCUUTT against COLEC12 | active: -1.04 |
| CCGUAGCAAUAGUAGGUGUTT against UBA5 | inactive: -0.105 |
| GCCUCUACAUCAUAAACCUTT against HTR3C | inactive: -0.221 |

Copied from the listing (3 entries):

| Sequence | median seed-adjusted z-score |
| --- | --- |
| GCUCAACACUCAUCAAACATT against ZNF774 | inactive: -0.0834 |
| CGUUAUUGUUAGCAACACUTT against ZNF280A | inactive: -0.207 |
| GAACGUGCAUUAUAUCCCATT against MSL3 | inactive: 0.423 |

(next part)

| Sequence | median seed-adjusted z-score |
| --- | --- |
| GCGGACAUGUGGGAAUGUATT against KIAA1804 | inactive: -0.211 |
| GGAGUACAAUAAGAGGCGATT against TAOK3 | inactive: -0.594 |
| CCGUCUAUGCAAAGAUGUATT against TOMM40L | inactive: 0.12 |
| CAUGGACUACUGGAUCUUUTT against PPYR1 | inactive: 0.589 |
| GCAAGAGACCCUCAACAGATT against KIR2DL4 | inactive: -0.271 |
| CAAGAAUGUCUAUAAUGCATT against BACH2 | inactive: 0 |
| GCACAAUUGAGAUACAGGUTT against PCDHA5 | inactive: 0.671 |
| CCAGCAGCGUGACGAUACUTT against AZU1 | inactive: 0.349 |
| CAAAUACGAUUAUCCACUUTT against SLC26A3 | inactive: -0.506 |
| AAUUCUUUAUGAAUGCAAATT against ING3 | inactive: 0.192 |
| GCAAAUACCUGAUCUGCAATT against ANKK1 | inactive: -0.288 |
| GCCUACAAGCAGAUUCAAATT against PTRH2 | inactive: 0.0467 |
| GCUGUAAAGAUACAUCUCATT against ENPP1 | inactive: -0.273 |
| CAACAGACCUUGCACUCAATT against SCYL3 | inactive: 0.665 |
| GCCGAGAACUUCACUCUUUTT against P2RX1 | inactive: 0.908 |
| GAGGCUGACUUCUACCAGATT against KCTD11 | inactive: 0.374 |
| CUAUAGUCCUGCCUACUUATT against CRTC2 | inactive: -0.691 |
| GGAGCAUCAGAGAUUGAUATT against STAMBPL1 | inactive: 0.13 |
| CCGUGAGAGUUCCAACUUUTT against HDAC6 | inactive: 0.0457 |
| AGAUGGAGUUUGAUCCUAATT against POLR2G | active: -4.19 |

Copied from the list.
Entry of CCGUGAGAGUUCCAACUUUTT against HDAC6 under median seed-adjusted z-score: inactive: 0.0457
Entry of CUAUAGUCCUGCCUACUUATT against CRTC2 under median seed-adjusted z-score: inactive: -0.691
Entry of GCAAAUACCUGAUCUGCAATT against ANKK1 under median seed-adjusted z-score: inactive: -0.288
